## Cell number after 72 h of treatment

Data from the primary screen of doi:10.1371/journal.pone.0140310, rounded.

All values are for the listed drug together with LFM-A13 (2 µM): C/C(O)=C(\C#N)C(=O)Nc1cc(Br)ccc1Br

Drug key:
ZM336372, 2 µM: Cc1ccc(NC(=O)c2cccc(N(C)C)c2)cc1NC(=O)c1ccc(O)cc1
GW9662, 2 µM: O=C(Nc1ccccc1)c1cc([N+](=O)[O-])ccc1Cl
nilutamide, 1 µM: CC1(C)NC(=O)N(c2ccc([N+](=O)[O-])c(C(F)(F)F)c2)C1=O
tipifarnib, 0.01 µM: Cn1cncc1[C@@](N)(c1ccc(Cl)cc1)c1ccc2c(c1)c(-c1cccc(Cl)c1)cc(=O)n2C
XAV939, 2 µM: Oc1nc(-c2ccc(C(F)(F)F)cc2)nc2c1CSCC2
tozasertib, 0.006 µM: Cc1cc(Nc2cc(N3CCN(C)CC3)nc(Sc3ccc(NC(=O)C4CC4)cc3)n2)n[nH]1

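The test systems are human melanoma cell lines, treated with a pair of drugs for 72 h and then stained and imaged. Values are the number of DAPI-stained nuclei as a percentage of the DMSO control: 100 is no effect, lower means fewer cells. Concentrations were fixed for each drug; these are the lower of two levels, a fifth of the higher. No replicate spread is given; individual values may be noisy.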 An unselected part of the screen is shown. A dash means that no value is listed here.

Cell line,tozasertib,nilutamide,XAV939,GW9662,ZM336372,tipifarnib
LB2518-MEL,83.0,88.4,94.4,98.2,98.6,85.2
G-361,99.4,123,112,98.1,110,89.7
COLO 829,83.1,95.4,112,95.9,69.1,81.2
COLO 800,67.7,66.9,66.5,88.2,85.7,95.7
A375,-,109,94.7,112,89.9,79.4
C32,93.2,88.0,88.4,119,114,112
IPC-298,101,98.0,99.0,108,89.8,98.7
MEL-HO,97.1,94.5,93.2,90.4,82.0,99.3
501mel,108,90.7,108,98.7,81.5,105
COLO 792,97.9,107,88.9,96.7,93.0,76.9
IST-MEL1,96.4,111,99.0,101,97.8,93.5
A101D,100,104,96.2,103,110,85.8
A2058,87.9,117,74.9,95.7,110,96.7
LOX IMVI,76.9,97.5,62.0,140,107,83.3

For reference, 2 entries once more:

Cell line	tozasertib	nilutamide	XAV939	GW9662	ZM336372	tipifarnib
MEL-HO	97.1	94.5	93.2	90.4	82.0	99.3
C32	93.2	88.0	88.4	119	114	112